In paper doi:10.1101/2023.02.03.526778:
Results are given in words; binding and its absence hold for the method and conditions named. Some entries that bind do so weakly or less than the wild type.

The chains behind the UniProt entries cited, without tags or fusion partners. Residues count along the entry.
UniProt P04114, residues 28-4563: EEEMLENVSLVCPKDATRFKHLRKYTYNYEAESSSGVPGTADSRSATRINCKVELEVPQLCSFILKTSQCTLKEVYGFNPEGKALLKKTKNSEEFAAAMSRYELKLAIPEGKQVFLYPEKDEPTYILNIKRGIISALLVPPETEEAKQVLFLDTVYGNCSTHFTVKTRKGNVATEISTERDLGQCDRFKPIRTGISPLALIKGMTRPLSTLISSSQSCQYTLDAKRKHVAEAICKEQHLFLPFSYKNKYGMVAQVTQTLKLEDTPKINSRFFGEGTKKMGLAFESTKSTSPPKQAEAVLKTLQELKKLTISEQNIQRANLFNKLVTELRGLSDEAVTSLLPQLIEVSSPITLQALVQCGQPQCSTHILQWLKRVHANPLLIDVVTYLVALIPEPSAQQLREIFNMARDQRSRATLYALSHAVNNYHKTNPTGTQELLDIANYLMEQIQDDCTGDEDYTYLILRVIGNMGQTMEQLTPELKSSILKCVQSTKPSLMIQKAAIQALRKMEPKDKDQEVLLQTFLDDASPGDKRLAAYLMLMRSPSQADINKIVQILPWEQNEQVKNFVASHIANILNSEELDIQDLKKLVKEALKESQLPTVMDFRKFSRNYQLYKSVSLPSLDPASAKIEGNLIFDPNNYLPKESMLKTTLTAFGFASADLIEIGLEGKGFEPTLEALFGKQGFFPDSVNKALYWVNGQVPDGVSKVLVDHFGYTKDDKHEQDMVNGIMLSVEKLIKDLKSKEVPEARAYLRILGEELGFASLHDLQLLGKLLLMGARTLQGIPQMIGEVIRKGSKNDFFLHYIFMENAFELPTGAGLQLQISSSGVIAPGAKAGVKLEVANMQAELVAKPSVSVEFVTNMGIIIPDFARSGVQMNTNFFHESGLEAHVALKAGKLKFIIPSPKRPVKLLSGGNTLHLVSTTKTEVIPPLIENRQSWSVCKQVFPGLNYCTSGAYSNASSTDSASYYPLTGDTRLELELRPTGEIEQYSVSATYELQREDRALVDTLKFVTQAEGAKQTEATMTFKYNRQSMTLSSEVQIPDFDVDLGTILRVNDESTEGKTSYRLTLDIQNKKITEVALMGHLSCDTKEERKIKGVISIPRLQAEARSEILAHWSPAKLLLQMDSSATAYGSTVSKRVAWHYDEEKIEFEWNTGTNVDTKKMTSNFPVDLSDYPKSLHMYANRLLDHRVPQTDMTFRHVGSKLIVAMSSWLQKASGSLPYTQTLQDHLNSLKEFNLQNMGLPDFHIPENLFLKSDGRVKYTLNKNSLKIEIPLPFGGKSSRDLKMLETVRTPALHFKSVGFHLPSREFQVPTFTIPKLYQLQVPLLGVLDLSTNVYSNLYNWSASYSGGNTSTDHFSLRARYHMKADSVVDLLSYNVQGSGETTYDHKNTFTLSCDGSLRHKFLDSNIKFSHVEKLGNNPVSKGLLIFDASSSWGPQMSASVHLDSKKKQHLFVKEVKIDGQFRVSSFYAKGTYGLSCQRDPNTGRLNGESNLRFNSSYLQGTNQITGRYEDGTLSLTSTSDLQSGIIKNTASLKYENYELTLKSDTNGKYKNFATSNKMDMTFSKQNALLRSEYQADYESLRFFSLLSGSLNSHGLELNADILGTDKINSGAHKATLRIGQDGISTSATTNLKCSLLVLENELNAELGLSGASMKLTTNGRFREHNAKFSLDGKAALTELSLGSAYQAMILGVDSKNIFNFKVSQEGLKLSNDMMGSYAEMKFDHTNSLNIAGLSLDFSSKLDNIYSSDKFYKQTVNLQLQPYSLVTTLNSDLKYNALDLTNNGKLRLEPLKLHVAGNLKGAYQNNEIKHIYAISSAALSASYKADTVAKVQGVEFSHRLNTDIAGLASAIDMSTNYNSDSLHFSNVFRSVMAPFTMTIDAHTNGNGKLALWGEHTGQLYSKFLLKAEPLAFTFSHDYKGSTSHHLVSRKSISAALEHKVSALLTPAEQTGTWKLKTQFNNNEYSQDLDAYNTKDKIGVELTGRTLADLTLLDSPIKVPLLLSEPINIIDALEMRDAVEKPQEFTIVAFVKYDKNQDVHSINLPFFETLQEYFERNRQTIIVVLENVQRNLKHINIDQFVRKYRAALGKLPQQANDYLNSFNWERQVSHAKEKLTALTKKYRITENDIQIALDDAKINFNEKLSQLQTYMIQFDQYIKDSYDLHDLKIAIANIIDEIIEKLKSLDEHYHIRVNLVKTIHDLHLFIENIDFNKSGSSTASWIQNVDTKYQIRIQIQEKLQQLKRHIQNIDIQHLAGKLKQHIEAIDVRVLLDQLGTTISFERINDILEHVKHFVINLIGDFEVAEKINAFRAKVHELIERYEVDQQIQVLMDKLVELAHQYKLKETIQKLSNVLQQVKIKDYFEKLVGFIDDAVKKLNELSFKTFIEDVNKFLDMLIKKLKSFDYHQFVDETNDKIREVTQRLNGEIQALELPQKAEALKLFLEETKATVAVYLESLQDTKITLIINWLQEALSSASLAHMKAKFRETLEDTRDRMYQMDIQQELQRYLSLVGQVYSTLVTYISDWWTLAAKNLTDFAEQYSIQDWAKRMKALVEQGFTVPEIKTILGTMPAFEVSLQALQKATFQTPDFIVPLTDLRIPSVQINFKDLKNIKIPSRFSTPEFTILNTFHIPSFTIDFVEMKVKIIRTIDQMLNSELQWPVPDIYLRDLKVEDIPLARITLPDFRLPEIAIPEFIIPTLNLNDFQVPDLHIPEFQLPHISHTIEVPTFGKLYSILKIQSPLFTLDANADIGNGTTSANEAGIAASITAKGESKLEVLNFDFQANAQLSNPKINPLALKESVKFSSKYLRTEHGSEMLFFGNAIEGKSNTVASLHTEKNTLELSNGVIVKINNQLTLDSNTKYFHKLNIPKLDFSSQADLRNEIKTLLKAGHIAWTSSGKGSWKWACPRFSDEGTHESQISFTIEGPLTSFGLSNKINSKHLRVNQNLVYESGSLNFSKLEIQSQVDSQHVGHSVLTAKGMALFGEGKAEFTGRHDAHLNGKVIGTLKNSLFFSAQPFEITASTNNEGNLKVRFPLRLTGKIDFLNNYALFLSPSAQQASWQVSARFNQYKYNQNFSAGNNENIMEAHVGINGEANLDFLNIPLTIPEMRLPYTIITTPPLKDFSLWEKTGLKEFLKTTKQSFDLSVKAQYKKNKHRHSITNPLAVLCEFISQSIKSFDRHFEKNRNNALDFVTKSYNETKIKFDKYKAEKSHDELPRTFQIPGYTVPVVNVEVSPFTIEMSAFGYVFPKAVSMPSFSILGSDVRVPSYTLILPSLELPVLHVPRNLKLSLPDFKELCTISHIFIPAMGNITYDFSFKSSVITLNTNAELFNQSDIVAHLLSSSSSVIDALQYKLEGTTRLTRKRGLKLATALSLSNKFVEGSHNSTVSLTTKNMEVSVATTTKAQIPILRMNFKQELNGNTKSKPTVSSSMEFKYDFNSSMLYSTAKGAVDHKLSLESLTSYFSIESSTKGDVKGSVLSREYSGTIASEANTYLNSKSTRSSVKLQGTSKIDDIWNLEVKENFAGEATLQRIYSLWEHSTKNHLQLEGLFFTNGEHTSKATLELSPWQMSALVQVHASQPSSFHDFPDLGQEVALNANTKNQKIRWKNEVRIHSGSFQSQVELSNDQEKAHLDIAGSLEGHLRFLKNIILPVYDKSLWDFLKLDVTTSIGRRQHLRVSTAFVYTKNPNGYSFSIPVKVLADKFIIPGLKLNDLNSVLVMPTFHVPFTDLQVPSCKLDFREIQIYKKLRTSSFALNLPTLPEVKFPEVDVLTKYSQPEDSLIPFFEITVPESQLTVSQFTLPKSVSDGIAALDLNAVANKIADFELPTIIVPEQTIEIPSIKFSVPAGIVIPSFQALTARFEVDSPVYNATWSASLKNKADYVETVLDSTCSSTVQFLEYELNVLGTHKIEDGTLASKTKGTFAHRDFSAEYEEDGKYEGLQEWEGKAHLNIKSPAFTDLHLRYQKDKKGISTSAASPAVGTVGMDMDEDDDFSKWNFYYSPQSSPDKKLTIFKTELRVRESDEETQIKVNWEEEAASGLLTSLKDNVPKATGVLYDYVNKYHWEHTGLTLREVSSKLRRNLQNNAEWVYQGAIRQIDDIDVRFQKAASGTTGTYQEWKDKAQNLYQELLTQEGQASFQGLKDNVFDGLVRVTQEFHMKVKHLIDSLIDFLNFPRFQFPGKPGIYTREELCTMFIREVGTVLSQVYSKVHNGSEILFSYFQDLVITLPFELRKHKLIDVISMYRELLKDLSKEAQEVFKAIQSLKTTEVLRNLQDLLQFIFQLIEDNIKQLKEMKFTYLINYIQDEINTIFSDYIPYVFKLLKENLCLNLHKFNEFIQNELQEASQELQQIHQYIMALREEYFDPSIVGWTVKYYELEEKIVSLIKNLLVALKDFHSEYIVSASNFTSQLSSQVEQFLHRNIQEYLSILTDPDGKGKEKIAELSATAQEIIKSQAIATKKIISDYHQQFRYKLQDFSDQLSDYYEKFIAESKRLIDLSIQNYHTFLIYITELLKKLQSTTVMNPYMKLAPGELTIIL

Biological target: murine LDLR (mLDLR) expressed by N2A cells (mouse (endogenous in Neuro-2a)) (UniProt P35951)
Test: flow cytometry on cells

LDL particles (DiI-LDL) (from UniProt P04114 28-4563) (ligand)
binding: binds
